According to PMC10897455:
Results are given in words; binding and its absence hold for the method and conditions named. In cells and extracts the contact can be indirect. Some binding calls cover weakened binding; strength is not graded here. Where a sequence is shown, tags or fusion partners need not be part of it.

Molecular target: T1, TMEM25-FL (residues 27–366), N-terminally FLAG- or HA-tagged, in HEK293 cells (human) (UniProt Q86YD3)
T1 sequence (chain, N-glycosylated (complex-type and high-mannose-type N-glycans)): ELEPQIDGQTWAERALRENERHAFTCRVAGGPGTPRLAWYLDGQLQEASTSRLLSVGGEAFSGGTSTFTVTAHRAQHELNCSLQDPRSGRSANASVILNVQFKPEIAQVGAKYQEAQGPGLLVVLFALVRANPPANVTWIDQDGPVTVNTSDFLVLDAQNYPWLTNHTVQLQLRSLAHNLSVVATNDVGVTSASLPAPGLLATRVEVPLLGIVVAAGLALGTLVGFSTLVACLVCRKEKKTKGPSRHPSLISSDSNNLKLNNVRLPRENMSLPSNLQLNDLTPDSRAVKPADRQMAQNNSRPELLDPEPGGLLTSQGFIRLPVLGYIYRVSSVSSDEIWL
Assay: co-IP; cis: HEK293T cells co-transfected with two tagged proteins, cultured at low density; lysis in 150 mM NaCl, 4 mM EDTA, 10% glycerol, 0.5% Triton X-100, 50 mM Tris-HCl pH 7.5, 1 mM DTT; anti-FLAG (M2) or anti-HA (3F10) on protein G-Sepharose; immunoblot

B1: claudin-2 (residues 1–230), FLAG- or Myc-tagged, in HEK293 cells (protein, UniProt P57739 1-230)
chain: MASLGLQLVGYILGLLGLLGTLVAMLLPSWKTSSYVGASIVTAVGFSKGLWMECATHSTGITQCDIYSTLLGLPADIQAAQAMMVTSSAISSLACIISVVGMRCTVFCQESRAKDRVAVAGGVFFILGGLLGFIPVAWNLHGILRDFYSPLVPDSMKFEIGEALYLGIISSLFSLIAGIILCFSCSSQRNRSNYYDAYQAQPLATRSSPRPGQPPKVKSEFNSYSLTGYV
B1 was tested, and the binding was “binds”.

B2: occludin (residues 1–522), FLAG- or Myc-tagged, in HEK293 cells (protein, UniProt Q16625 1-522)
chain: MSSRPLESPPPYRPDEFKPNHYAPSNDIYGGEMHVRPMLSQPAYSFYPEDEILHFYKWTSPPGVIRILSMLIIVMCIAIFACVASTLAWDRGYGTSLLGGSVGYPYGGSGFGSYGSGYGYGYGYGYGYGGYTDPRAAKGFMLAMAAFCFIAALVIFVTSVIRSEMSRTRRYYLSVIIVSAILGIMVFIATIVYIMGVNPTAQSSGSLYGSQIYALCNQFYTPAATGLYVDQYLYHYCVVDPQEAIAIVLGFMIIVAFALIIFFAVKTRRKMDRYDKSNILWDKEHIYDEQPPNVEEWVKNVSAGTQDVPSPPSDYVERVDSPMAYSSNGKVNDKRFYPESSYKSTPVPEVVQELPLTSPVDDFRQPRYSSGGNFETPSKRAPAKGRAGRSKRTEQDHYETDYTTGGESCDELEEDWIREYPPITSDQQRQLYKRNFDTGLQEYKSLQSELDEINKELSRLDKELDDYREESEEYMAAADEYNRLKQVKGSADYKSKKNHCKQLKSKLSHIKKMVGDYDRQKT
For B2, the binding was “no binding”.

B3: claudin-15 (residues 1–228), FLAG-tagged, in HEK293 cells (protein, UniProt P56746 1-228)
chain: MSMAVETFGFFMATVGLLMLGVTLPNSYWRVSTVHGNVITTNTIFENLWFSCATDSLGVYNCWEFPSMLALSGYIQACRALMITAILLGFLGLLLGIAGLRCTNIGGLELSRKAKLAATAGALHILAGICGMVAISWYAFNITRDFFDPLYPGTKYELGPALYLGWSASLISILGGLCLCSACCCGSDEDPAASARRPYQAPVSVMPVATSDQEGDSSFGKYGRNAYV
With B3 the binding was “no binding”.
